# Reference: the supplement of paper PMC10338343
# ± gives the standard deviation. The list shows a part of the results, in another mix than the full data. Many of these values have a large error. The list shows a part of the results.
# Tests used:
# [1] = system: MILI (PIWIL2) piRISC loaded with L1MC piRNA (26 nt); assay: pre-steady-state target cleavage rate (min^-1); higher = faster piRNA-guided slicing of the target; details: guide: L1MC piRNA 5'p-UAACUAAAUACUAUGCAAGCUGUAGG; auxiliary factor: none (no GTSF1)
# Procedure, shortened: (§1)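 The pre-steady-state cleavage rate was calculated from a burst-and-steady-state fit. Data came from Cleave-'n-Seq, in which […] transcribed, DNA-blocked target RNA library was mixed with 1 nM active affinity-purified piRISC carrying one synthetic guide, with or without 500 nM GTSF1 partner protein, in HEPES–potassium acetate buffer at 33 °C for 0–8 or 0–960 min. Uncleaved targets were sequenced and normalised to depth and to weakly complementary targets, three trials were pooled, and k3 was capped at 0.0001 min^-1.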
# [2] = system: MIWI (PIWIL1) piRISC loaded with L1MC piRNA (30 nt); assay: as above; details: guide: L1MC piRNA 5'p-UAACUAAAUACUAUGCAAGCUGUAGGUCCU
# Procedure, shortened: as §1
# [3] = system: EfPiwi piRISC loaded with L1MC piRNA (26 nt); assay: pre-steady-state target cleavage rate (min^-1); guide: L1MC piRNA 5'p-UAACUAAAUACUAUGCAAGCUGUAGG; MIWI and MILI are mouse PIWI proteins and EfPiwi is from a freshwater sponge; tags in brackets are library labels; higher = faster piRNA-guided slicing of the target
# Procedure, shortened: as §1
# [4] = auxiliary factor: none (no GTSF1)
# [5] = auxiliary factor: 500 nM Ephydatia muelleri Gtsf1
# [6] = auxiliary factor: none (no Gtsf1)
sequence,measurement,setting,value
UCCUGGAUGAGCUUCCAUAGUAUUUAGAUA,pre-steady-state target cleavage rate,[1],0.000323 ± 0.021
same,pre-steady-state target cleavage rate,[2]; [4],0.000719 ± 0.011
same,pre-steady-state target cleavage rate,[3]; [5],0.00223 ± 0.0024
same,pre-steady-state target cleavage rate,[3]; [6],0.000201 ± 0.044
UCCUGGAUCAGCUUGCUAAGUAUUUUCAAA,pre-steady-state target cleavage rate,[1],0.000593 ± 0.0084
same,pre-steady-state target cleavage rate,[2]; [4],0.000747 ± 0.0092
same,pre-steady-state target cleavage rate,[3]; [5],0.00039 ± 0.011
same,pre-steady-state target cleavage rate,[3]; [6],0.000701 ± 0.014
UCCUGGUACAGCUUGCAUACAAUUUUCAAA,pre-steady-state target cleavage rate,[1],0.00118 ± 0.0056
same,pre-steady-state target cleavage rate,[2]; [4],0.000835 ± 0.0044
same,pre-steady-state target cleavage rate,[3]; [5],0.00058 ± 0.0069
same,pre-steady-state target cleavage rate,[3]; [6],0.000393 ± 0.019
UCCUGGAUGUCGUAGCAUAGUAUUUACUUA,pre-steady-state target cleavage rate,[1],0.00103 ± 0.0053
same,pre-steady-state target cleavage rate,[2]; [4],0.000684 ± 0.0097
same,pre-steady-state target cleavage rate,[3]; [5],0.000236 ± 0.016
same,pre-steady-state target cleavage rate,[3]; [6],0.000203 ± 0.03
UCCUGGUACAGCUUGCAUACAUUUUACAAA,pre-steady-state target cleavage rate,[1],0.00122 ± 0.0066
same,pre-steady-state target cleavage rate,[2]; [4],0.000235 ± 0.015
same,pre-steady-state target cleavage rate,[3]; [5],0.000294 ± 0.01
same,pre-steady-state target cleavage rate,[3]; [6],0.000199 ± 0.035
UCCUGGAACAGCUUGCAUAGUAUAUACAAA,pre-steady-state target cleavage rate,[1],0.00112 ± 0.0049
same,pre-steady-state target cleavage rate,[2]; [4],0.00138 ± 0.0055
same,pre-steady-state target cleavage rate,[3]; [5],0.00131 ± 0.0042
same,pre-steady-state target cleavage rate,[3]; [6],0.000236 ± 0.025
UCCUGGAACAGCUUGCUUAGUAUUUUCAAA,pre-steady-state target cleavage rate,[1],0.000836 ± 0.0057
same,pre-steady-state target cleavage rate,[2]; [4],0.00156 ± 0.0043
same,pre-steady-state target cleavage rate,[3]; [5],0.000764 ± 0.0048
same,pre-steady-state target cleavage rate,[3]; [6],0.000286 ± 0.02
UCCUCCUACAGCUACCAUAGUAUUUAGUAA,pre-steady-state target cleavage rate,[1],0.00199 ± 0.0031
same,pre-steady-state target cleavage rate,[2]; [4],0.000806 ± 0.0057
same,pre-steady-state target cleavage rate,[3]; [5],0.00215 ± 0.0023
same,pre-steady-state target cleavage rate,[3]; [6],0.000208 ± 0.024
UCCUGGUACAGCUUGCAUAGUUAAUAGUAA,pre-steady-state target cleavage rate,[1],0.00174 ± 0.0046
same,pre-steady-state target cleavage rate,[2]; [4],0.00368 ± 0.004
same,pre-steady-state target cleavage rate,[3]; [5],0.000889 ± 0.0047
same,pre-steady-state target cleavage rate,[3]; [6],0.00046 ± 0.02
UCCUGGAUGUGCUAGCAUAGUAUUAAGUUA,pre-steady-state target cleavage rate,[1],0.00214 ± 0.0037
same,pre-steady-state target cleavage rate,[2]; [4],0.00302 ± 0.0039
same,pre-steady-state target cleavage rate,[3]; [5],0.000944 ± 0.0057
same,pre-steady-state target cleavage rate,[3]; [6],0.000312 ± 0.03
UCCUCCUACAGCUUGCAUAGAUUUUAGUAA,pre-steady-state target cleavage rate,[1],0.00123 ± 0.0046
same,pre-steady-state target cleavage rate,[2]; [4],0.00138 ± 0.0041
same,pre-steady-state target cleavage rate,[3]; [5],0.00392 ± 0.0025
same,pre-steady-state target cleavage rate,[3]; [6],0.000448 ± 0.01
UCCUGGAACAGCUUGCAUAGUAUUAUCUAA,pre-steady-state target cleavage rate,[1],0.00106 ± 0.0059
same,pre-steady-state target cleavage rate,[2]; [4],0.00303 ± 0.003
same,pre-steady-state target cleavage rate,[3]; [5],0.00153 ± 0.0034
same,pre-steady-state target cleavage rate,[3]; [6],0.000836 ± 0.0069
UCCUGGUACAGCUUGCAUACAAUUUAGAAA,pre-steady-state target cleavage rate,[1],0.00151 ± 0.005
same,pre-steady-state target cleavage rate,[2]; [4],0.000925 ± 0.0092
same,pre-steady-state target cleavage rate,[3]; [5],0.00285 ± 0.0029
same,pre-steady-state target cleavage rate,[3]; [6],0.000361 ± 0.018
UCCUGCUACACGUUGCAUAGUAUUUAGAAA,pre-steady-state target cleavage rate,[1],0.000793 ± 0.011
same,pre-steady-state target cleavage rate,[2]; [4],0.00136 ± 0.0035
same,pre-steady-state target cleavage rate,[3]; [5],0.00142 ± 0.003
same,pre-steady-state target cleavage rate,[3]; [6],0.000277 ± 0.023
UCCUGGAUCAGCUUGCAUACAAUUUAGAAA,pre-steady-state target cleavage rate,[1],0.000666 ± 0.0082
same,pre-steady-state target cleavage rate,[2]; [4],0.00108 ± 0.0062
same,pre-steady-state target cleavage rate,[3]; [5],0.00145 ± 0.0042
same,pre-steady-state target cleavage rate,[3]; [6],0.000793 ± 0.011
UCCUGGAUGUCCUUGCUUAGUAUUUACUUA,pre-steady-state target cleavage rate,[1],0.00246 ± 0.0028
same,pre-steady-state target cleavage rate,[2]; [4],0.0019 ± 0.0028
same,pre-steady-state target cleavage rate,[3]; [5],0.000359 ± 0.0079
same,pre-steady-state target cleavage rate,[3]; [6],0.000244 ± 0.021
UCCUGCUACAGCUUGCAUAGUUUUUAGAAA,pre-steady-state target cleavage rate,[1],0.00105 ± 0.0057
same,pre-steady-state target cleavage rate,[2]; [4],0.00296 ± 0.0032
same,pre-steady-state target cleavage rate,[3]; [5],0.00343 ± 0.0019
same,pre-steady-state target cleavage rate,[3]; [6],0.000309 ± 0.015
UCCUGGAUGAGCUUCCAUAGUAUAUAGUUA,pre-steady-state target cleavage rate,[1],0.000364 ± 0.017
same,pre-steady-state target cleavage rate,[2]; [4],0.000252 ± 0.014
same,pre-steady-state target cleavage rate,[3]; [5],0.000454 ± 0.0079
same,pre-steady-state target cleavage rate,[3]; [6],0.000157 ± 0.048
UCCUGGAUGAGCUUGCAUACAUUUUAGUAA,pre-steady-state target cleavage rate,[1],0.00065 ± 0.011
same,pre-steady-state target cleavage rate,[2]; [4],0.00126 ± 0.0054
same,pre-steady-state target cleavage rate,[3]; [5],0.000446 ± 0.0067
same,pre-steady-state target cleavage rate,[3]; [6],0.000229 ± 0.031
UCCUGGAUGUGCUUCCAUAGUAUUUAGAAA,pre-steady-state target cleavage rate,[1],0.000304 ± 0.019
same,pre-steady-state target cleavage rate,[2]; [4],0.000512 ± 0.01
same,pre-steady-state target cleavage rate,[3]; [5],0.00625 ± 0.0039
same,pre-steady-state target cleavage rate,[3]; [6],0.000431 ± 0.017
UCCUGCUACAGCUUGCAUACUAUUUACAAA,pre-steady-state target cleavage rate,[1],0.000946 ± 0.0066
same,pre-steady-state target cleavage rate,[2]; [4],0.00204 ± 0.0031
same,pre-steady-state target cleavage rate,[3]; [5],0.00175 ± 0.0032
same,pre-steady-state target cleavage rate,[3]; [6],0.000396 ± 0.011
UCCUGGAACAGCUUGCAUAGUAUUAACAAA,pre-steady-state target cleavage rate,[1],0.000806 ± 0.006
same,pre-steady-state target cleavage rate,[2]; [4],0.00221 ± 0.0033
same,pre-steady-state target cleavage rate,[3]; [5],0.0032 ± 0.004
same,pre-steady-state target cleavage rate,[3]; [6],< 0.0001
UCCUGGAUGUCGAUGCAUAAGUAUUUAGUUA,pre-steady-state target cleavage rate,[1],0.000436 ± 0.011
same,pre-steady-state target cleavage rate,[2]; [4],0.000649 ± 0.014
same,pre-steady-state target cleavage rate,[3]; [5],0.000528 ± 0.0073
same,pre-steady-state target cleavage rate,[3]; [6],0.000511 ± 0.015
UCCUGGAUGAGCUUGCUAAGUAUUUACAAA,pre-steady-state target cleavage rate,[1],0.00099 ± 0.0071
same,pre-steady-state target cleavage rate,[2]; [4],0.00138 ± 0.0061
same,pre-steady-state target cleavage rate,[3]; [5],0.000399 ± 0.011
same,pre-steady-state target cleavage rate,[3]; [6],0.00104 ± 0.01
UCCUGCUACAGCUUGCAUAGUUAUUAGAAA,pre-steady-state target cleavage rate,[1],0.000264 ± 0.012
same,pre-steady-state target cleavage rate,[2]; [4],0.00147 ± 0.0028
same,pre-steady-state target cleavage rate,[3]; [5],0.00309 ± 0.0025
same,pre-steady-state target cleavage rate,[3]; [6],0.00072 ± 0.0099
UCCUGGUACAGCUUGCAAUCUAUUUAGAAA,pre-steady-state target cleavage rate,[1],0.000986 ± 0.0083
same,pre-steady-state target cleavage rate,[2]; [4],0.00119 ± 0.0049
same,pre-steady-state target cleavage rate,[3]; [5],0.00031 ± 0.013
same,pre-steady-state target cleavage rate,[3]; [6],0.000348 ± 0.019
UCCUGGAUGUCGAUGCAUAGUAUUAUGUUA,pre-steady-state target cleavage rate,[1],0.00157 ± 0.0043
same,pre-steady-state target cleavage rate,[2]; auxiliary factor: 500 nM mouse GTSF1,0.000982 ± 0.0083
same,pre-steady-state target cleavage rate,[3]; [5],0.000877 ± 0.0097
same,pre-steady-state target cleavage rate,[3]; [6],< 0.0001
UCCUGGAACAGCUUGGUUAGUAUUUUCAAA,pre-steady-state target cleavage rate,[1],0.00109 ± 0.0063
same,pre-steady-state target cleavage rate,[2]; [4],0.000674 ± 0.0052
same,pre-steady-state target cleavage rate,[3]; [5],0.000445 ± 0.011
same,pre-steady-state target cleavage rate,[3]; [6],0.000186 ± 0.049
UCCUGGAUGUCCAUGCAUACUAUUUAGUUA,pre-steady-state target cleavage rate,[1],0.0014 ± 0.0056
same,pre-steady-state target cleavage rate,[2]; [4],0.000797 ± 0.013
same,pre-steady-state target cleavage rate,[3]; [5],0.000618 ± 0.0046
same,pre-steady-state target cleavage rate,[3]; [6],0.000294 ± 0.023
UCCUGGAAGUGCUUGCAUAGUAUUUAGAAA,pre-steady-state target cleavage rate,[1],0.000773 ± 0.0057
same,pre-steady-state target cleavage rate,[2]; [4],0.00283 ± 0.003
same,pre-steady-state target cleavage rate,[3]; [5],0.00379 ± 0.0018
same,pre-steady-state target cleavage rate,[3]; [6],< 0.0001
UCCUGGUACAGCUUGCAAUGUAUUUAGAAA,pre-steady-state target cleavage rate,[1],0.00113 ± 0.0057
same,pre-steady-state target cleavage rate,[2]; [4],0.00194 ± 0.0029
same,pre-steady-state target cleavage rate,[3]; [5],0.000536 ± 0.0062
same,pre-steady-state target cleavage rate,[3]; [6],0.000134 ± 0.05
UCCUGGAUGACCUUGCAUAGUAUUUAGAAA,pre-steady-state target cleavage rate,[1],0.000996 ± 0.0064
same,pre-steady-state target cleavage rate,[2]; [4],0.00194 ± 0.0049
same,pre-steady-state target cleavage rate,[3]; [5],0.00114 ± 0.0042
same,pre-steady-state target cleavage rate,[3]; [6],0.000475 ± 0.015
UCCUGCUACAGCUUGCAUUGUAUUUAGAAA,pre-steady-state target cleavage rate,[1],0.00126 ± 0.0053
same,pre-steady-state target cleavage rate,[2]; [4],0.00211 ± 0.003
same,pre-steady-state target cleavage rate,[3]; [5],0.00474 ± 0.0017
same,pre-steady-state target cleavage rate,[3]; [6],0.000293 ± 0.014
UCCUGGAUCAGCUUGCAUAGAUUUUAGAAA,pre-steady-state target cleavage rate,[1],0.000646 ± 0.007
same,pre-steady-state target cleavage rate,[2]; [4],0.00115 ± 0.0066
same,pre-steady-state target cleavage rate,[3]; [5],0.0011 ± 0.0029
same,pre-steady-state target cleavage rate,[3]; [6],0.000475 ± 0.011

# Rewritten as tab-separated lines: entries from further up
sequence	measurement	setting	value
UCCUGCUACAGCUUGCAUAGUUAUUAGAAA	pre-steady-state target cleavage rate	[1]	0.000264 ± 0.012
same	pre-steady-state target cleavage rate	[2]; [4]	0.00147 ± 0.0028
same	pre-steady-state target cleavage rate	[3]; [5]	0.00309 ± 0.0025

# A second format for part of the listing above:
sequence	measurement	setting	value
UCCUGGAUCAGCUUGCAUAGAUUUUAGAAA	pre-steady-state target cleavage rate	[2]; [4]	0.00115 ± 0.0066
same	pre-steady-state target cleavage rate	[3]; [5]	0.0011 ± 0.0029
